The assay addresses T1, 6xMyc N-terminal-tagged full-length (FL)-Sema5A (rat) (UniProt D3ZTD8).
T1 sequence: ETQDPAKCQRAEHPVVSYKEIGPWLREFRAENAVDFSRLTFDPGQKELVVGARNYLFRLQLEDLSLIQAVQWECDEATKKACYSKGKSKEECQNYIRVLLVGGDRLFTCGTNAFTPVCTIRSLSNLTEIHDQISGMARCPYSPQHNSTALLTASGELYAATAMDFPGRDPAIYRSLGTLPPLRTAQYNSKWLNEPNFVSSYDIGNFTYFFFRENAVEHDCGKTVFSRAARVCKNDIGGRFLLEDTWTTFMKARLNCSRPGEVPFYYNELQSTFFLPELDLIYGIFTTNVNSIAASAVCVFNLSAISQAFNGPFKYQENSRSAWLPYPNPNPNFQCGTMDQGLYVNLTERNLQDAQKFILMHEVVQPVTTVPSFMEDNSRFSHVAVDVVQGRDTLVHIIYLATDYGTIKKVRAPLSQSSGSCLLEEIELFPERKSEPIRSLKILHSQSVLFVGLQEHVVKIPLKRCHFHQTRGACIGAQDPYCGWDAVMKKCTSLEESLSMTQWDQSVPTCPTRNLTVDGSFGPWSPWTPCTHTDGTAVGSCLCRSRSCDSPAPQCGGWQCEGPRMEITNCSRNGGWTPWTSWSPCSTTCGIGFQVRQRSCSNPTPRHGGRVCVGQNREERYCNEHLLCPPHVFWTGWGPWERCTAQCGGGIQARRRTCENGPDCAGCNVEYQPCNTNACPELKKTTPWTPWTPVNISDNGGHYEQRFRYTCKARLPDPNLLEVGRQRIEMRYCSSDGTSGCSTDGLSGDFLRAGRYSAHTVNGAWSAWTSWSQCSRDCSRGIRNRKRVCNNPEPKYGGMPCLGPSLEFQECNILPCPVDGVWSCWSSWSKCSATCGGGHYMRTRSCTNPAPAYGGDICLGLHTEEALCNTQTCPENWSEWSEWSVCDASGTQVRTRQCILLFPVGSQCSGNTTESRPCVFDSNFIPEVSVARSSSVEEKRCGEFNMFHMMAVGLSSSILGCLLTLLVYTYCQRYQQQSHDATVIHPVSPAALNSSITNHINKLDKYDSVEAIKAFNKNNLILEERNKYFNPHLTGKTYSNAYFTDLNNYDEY
Put plainly: binding of AP-clustered Fc fusion protein to transfected cells; COS7 cells transfected with PlexA or semaphorin constructs, incubated 75 min in OptiMEM with Fc fusion protein preclustered with anti-human IgG conjugated to alkaline phosphatase; rinsed, fixed, developed with NBT/BCIP; only the binder purified.

These are yes or no findings as the source states them, for the method shown. Some binding calls cover weakened binding; strength is not graded here. Where a sequence is shown, tags or fusion partners need not be part of it.

B1: sema domain of PlexA2 fused to Fc (PlexA2^SD-Fc) (Fc fusion, UniProt P70207 35-508)
chain: MPQYSTFHSENRDWTFNHLTVHRRTGAVYVGAINRVYKLTGNLTIQVAHKTGPEEDNKACYPPLIVQPCSEVLTLTNNVNKLLIIDYSENRLLACGSLYQGVCKLLRLDDLFILVEPSHKKEHYLSSVNKTGTMYGVIVRSEGEDGKLFIGTAVDGKQDYFPTLSSRKLPRDPESSAMLDYELHSDFVSSLIKIPSDTLALVSHFDIFYIYGFASGGFVYFLTVQPETPDGMAINSAGDLFYTSRIVRLCKDDPKFHSYVSLPFGCTRAGVEYRLLQAAYLAKPGEALAQAFNISSDEDVLFAIFSKGQKQYHHPPDDSALCAFPIRAINLQIKERLQSCYHGEGNLELNWLLGKDVQCTKAPVPIDDNFCGLDINQPLGGSTPVEGLTLYTTSRDRLTSVASYVYNGYSVVFVGTKSGKLKKIRADGPPHGGVQYEMVSVFKDGSPILRDMAFSINQLYLYVMSERQVTRVPV
Turning to B1, the binding entry is “binds”.

These data come from PMC4236683.
